Earlier results, collected in patent US7563613B2, “Detoxification and decontamination using nanotechnology therapy” (University of Florida, priority 2001, dated 2009).

What was measured:
[1] = in vivo; cited from earlier work
[2] = at toxic plasma concentration; cited from earlier work

Structure (SMILES): CCCCc1oc2ccccc2c1C(=O)c1cc(I)c(OCCN(CC)CC)c(I)c1 [amiodarone]
- plasma concentration that begins to cause cardiac toxicity [1]: approximately 3,500 ng/ml
- bound in plasma [2]: 99.98±0.01%
